These are yes or no findings as the source states them, for the method shown. Binding seen in cells or lysates may run through a third protein. Some results given as binding are weak or reduced against the parent protein; the word gives no strength.

The chains behind the UniProt entries cited, without tags or fusion partners.
UniProt Q00987: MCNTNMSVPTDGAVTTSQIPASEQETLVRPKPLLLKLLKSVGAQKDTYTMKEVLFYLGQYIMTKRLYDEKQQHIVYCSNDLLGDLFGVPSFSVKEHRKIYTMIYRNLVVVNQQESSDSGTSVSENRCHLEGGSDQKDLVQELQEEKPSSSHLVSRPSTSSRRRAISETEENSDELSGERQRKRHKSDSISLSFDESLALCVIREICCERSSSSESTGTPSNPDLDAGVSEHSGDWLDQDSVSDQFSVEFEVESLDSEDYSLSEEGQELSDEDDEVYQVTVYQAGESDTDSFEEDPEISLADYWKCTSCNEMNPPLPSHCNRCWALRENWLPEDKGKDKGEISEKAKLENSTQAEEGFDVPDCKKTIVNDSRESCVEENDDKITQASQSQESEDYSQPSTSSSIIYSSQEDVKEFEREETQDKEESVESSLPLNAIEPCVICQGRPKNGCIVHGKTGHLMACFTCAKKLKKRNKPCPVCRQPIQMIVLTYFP
UniProt P03427: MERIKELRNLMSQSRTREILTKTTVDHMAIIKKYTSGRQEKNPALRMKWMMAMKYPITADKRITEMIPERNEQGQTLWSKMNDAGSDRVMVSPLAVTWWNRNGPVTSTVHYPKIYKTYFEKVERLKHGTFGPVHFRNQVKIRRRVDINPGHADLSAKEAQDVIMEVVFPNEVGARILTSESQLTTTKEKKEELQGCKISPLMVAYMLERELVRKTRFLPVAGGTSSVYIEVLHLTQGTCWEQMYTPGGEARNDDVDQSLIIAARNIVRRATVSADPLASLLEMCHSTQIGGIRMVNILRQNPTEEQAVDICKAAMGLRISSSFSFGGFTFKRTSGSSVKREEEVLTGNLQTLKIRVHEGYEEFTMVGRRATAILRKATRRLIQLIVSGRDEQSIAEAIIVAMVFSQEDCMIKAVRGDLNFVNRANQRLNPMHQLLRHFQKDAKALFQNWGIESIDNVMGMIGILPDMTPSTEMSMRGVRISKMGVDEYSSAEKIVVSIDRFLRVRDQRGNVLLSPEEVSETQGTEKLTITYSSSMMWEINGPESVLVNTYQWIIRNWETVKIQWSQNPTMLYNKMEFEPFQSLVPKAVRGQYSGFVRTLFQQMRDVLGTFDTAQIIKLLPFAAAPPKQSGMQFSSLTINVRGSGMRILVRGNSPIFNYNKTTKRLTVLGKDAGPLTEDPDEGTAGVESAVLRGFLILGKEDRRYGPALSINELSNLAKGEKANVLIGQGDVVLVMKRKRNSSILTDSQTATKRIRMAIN

This assay deals with Myc-HDM2 (UniProt Q00987). Description: co-IP.

With FLAG-PB2 (from UniProt P03427 1-759), the binding result is “binds”.

The record behind these values is PMC5333077.
